Where a chain is given by its changes, count along the chain named. No constants are given. Whether binding was seen depends on the method and setting. Binding seen in cells or lysates may run through a third protein. Some binding calls cover weakened binding; strength is not graded here. Tags and fused reporters may be left off the sequences shown.
What was measured:
Test in all cases: co-IP; 12xMyc-Met30 variants immunoprecipitated (Met30 IP) from yeast lysate; co-precipitated RGS6H-Cdc48 by western blot; Cdc48 recruitment during cadmium stress
[1] = biological target: T1, 12xMyc-Met30 C205S (S. cerevisiae) (UniProt P39014)
T1 sequence: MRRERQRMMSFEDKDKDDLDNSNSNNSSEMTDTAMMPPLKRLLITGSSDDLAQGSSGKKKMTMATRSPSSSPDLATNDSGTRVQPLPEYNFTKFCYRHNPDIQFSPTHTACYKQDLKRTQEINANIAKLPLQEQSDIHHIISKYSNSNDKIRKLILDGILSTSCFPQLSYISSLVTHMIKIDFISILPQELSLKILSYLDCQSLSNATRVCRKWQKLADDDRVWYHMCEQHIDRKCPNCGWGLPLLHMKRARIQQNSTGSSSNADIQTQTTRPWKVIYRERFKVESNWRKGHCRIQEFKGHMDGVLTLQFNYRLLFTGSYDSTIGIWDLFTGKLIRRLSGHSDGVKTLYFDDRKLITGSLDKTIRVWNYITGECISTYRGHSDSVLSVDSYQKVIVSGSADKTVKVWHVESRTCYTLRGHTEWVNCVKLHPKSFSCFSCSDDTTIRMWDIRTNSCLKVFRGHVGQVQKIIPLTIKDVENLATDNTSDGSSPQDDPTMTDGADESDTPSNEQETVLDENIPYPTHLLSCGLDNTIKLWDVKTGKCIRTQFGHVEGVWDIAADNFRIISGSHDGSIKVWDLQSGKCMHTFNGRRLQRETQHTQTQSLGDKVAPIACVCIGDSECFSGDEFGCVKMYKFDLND

The chains behind the UniProt entries cited, without tags or fusion partners.
UniProt P25694: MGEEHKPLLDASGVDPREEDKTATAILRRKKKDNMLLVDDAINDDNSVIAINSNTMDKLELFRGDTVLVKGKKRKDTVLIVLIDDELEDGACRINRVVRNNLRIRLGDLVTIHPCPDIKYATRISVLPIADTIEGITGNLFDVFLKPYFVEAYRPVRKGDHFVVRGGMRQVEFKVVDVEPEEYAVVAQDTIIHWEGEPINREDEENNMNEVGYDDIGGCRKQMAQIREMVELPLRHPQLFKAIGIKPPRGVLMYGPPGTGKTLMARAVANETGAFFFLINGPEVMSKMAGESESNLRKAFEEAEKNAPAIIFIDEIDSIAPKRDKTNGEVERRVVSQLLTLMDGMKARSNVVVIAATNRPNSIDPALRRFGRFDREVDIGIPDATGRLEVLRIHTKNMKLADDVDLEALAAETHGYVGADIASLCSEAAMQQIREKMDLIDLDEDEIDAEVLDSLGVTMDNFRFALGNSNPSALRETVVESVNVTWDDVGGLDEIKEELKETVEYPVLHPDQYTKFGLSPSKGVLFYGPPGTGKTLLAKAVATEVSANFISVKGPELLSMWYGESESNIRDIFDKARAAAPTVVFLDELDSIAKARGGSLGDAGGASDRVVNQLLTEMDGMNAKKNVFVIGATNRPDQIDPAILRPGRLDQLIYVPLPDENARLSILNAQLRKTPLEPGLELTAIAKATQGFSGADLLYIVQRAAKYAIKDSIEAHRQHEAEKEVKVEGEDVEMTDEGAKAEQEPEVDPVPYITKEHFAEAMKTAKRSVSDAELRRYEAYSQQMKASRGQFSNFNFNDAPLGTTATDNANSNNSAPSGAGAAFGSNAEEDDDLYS

[2] = biological target: T2, 12xMyc-Met30 C211S (S. cerevisiae) (UniProt P39014)
T2 sequence: T1 sequence with S205C, C211S

[3] = biological target: T3, 12xMyc-Met30 wild type (S. cerevisiae) (UniProt P39014)
T3 sequence: T1 sequence with S205C

[4] = biological target: T4, 12xMyc-Met30 C201S (S. cerevisiae) (UniProt P39014)
T4 sequence: T1 sequence with C201S, S205C

Measured: binding

RGS6H-Cdc48 (from UniProt P25694 1-835) (enzyme)
binds: [1] | [2] | [3] | [4]

Source: paper PMC11079001
